Assay results reported in US11719696B2, “Methods and compounds for diagnosing threonyl-tRNA synthetase-associated diseases and conditions” (The University of Vermont and State Agricultural College, priority 2012, dated 2023).
Some of these results come from one statement about several compounds together.

System: HUVECs
Experiment: TARS secretion into media by ELISA
Assay type: cell-based, Human
Settings: HUVECs treated with 50 ng/ml, 6 h

TNF-α
TARS in the media (ELISA): > 1000 µg/mL
